PMC11009390
These are yes or no findings as the source states them, for the method shown. In cells and extracts the contact can be indirect. Binding can be weak; no strength is given.

Amino acid sequences for entries named in this document (tags omitted). A change or cut given only in a name is not applied to a line headed by its entry.
UniProt P53350: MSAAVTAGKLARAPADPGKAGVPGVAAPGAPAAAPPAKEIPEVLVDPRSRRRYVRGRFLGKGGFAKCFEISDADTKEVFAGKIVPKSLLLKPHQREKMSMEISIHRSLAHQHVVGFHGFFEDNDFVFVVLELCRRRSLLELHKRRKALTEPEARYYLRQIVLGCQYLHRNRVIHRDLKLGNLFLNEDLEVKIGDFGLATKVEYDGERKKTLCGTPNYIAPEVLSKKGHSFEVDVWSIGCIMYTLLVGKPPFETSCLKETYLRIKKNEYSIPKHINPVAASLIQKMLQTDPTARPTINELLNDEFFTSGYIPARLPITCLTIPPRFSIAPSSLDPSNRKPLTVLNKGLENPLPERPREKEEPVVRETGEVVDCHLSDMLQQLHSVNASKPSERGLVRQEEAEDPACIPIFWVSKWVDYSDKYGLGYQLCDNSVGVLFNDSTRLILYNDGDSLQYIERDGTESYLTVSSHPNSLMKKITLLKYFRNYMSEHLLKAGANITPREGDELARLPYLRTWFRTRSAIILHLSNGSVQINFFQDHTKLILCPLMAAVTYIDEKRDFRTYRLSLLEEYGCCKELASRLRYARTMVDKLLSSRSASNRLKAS
UniProt Q9H4B4: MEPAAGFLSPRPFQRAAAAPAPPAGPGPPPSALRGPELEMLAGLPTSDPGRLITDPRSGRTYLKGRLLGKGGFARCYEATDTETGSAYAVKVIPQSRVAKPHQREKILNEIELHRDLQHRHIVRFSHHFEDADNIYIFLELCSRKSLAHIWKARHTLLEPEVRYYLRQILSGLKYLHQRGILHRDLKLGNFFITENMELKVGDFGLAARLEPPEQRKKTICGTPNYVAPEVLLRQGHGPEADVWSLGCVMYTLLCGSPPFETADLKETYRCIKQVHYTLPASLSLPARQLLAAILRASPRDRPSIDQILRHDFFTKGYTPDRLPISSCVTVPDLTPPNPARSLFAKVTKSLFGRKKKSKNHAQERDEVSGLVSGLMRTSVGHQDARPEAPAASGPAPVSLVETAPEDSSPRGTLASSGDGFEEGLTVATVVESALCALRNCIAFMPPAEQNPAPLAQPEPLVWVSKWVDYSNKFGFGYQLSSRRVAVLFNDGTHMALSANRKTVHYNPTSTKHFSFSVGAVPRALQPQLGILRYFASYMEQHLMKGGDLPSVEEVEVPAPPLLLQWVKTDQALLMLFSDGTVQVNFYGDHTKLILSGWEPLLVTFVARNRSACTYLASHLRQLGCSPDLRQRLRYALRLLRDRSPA
UniProt O43847: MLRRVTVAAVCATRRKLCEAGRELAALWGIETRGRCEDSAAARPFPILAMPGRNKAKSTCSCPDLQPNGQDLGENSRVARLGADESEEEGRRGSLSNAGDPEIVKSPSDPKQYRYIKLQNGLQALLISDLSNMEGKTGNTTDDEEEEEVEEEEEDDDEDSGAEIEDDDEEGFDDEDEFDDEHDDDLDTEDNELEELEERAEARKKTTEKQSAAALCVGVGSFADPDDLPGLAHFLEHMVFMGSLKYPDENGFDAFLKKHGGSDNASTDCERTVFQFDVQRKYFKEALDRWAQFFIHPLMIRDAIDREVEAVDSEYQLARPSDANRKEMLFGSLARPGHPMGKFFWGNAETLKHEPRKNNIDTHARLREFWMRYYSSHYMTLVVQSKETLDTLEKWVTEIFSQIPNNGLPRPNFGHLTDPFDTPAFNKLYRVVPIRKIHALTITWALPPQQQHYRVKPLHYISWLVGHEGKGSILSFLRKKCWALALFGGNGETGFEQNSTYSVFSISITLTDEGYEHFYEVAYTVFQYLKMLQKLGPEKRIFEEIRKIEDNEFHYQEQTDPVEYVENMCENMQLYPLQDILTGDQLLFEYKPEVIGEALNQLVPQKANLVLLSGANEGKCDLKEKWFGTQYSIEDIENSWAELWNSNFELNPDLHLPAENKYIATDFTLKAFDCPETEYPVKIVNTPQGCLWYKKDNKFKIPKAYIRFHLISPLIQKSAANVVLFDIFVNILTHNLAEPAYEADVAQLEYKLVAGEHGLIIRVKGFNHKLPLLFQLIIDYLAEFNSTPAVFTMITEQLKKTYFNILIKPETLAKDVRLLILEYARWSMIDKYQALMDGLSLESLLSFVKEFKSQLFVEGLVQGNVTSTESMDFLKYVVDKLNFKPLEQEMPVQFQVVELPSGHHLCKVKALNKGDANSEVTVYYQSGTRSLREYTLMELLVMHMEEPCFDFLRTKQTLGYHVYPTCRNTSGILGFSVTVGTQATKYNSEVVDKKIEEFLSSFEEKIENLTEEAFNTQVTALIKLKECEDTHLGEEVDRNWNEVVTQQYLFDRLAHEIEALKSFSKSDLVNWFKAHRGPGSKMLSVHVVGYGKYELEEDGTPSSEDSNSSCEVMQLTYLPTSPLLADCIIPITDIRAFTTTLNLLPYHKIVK

B1: centaurin-α1 (protein, UniProt O75689 1-374)
chain: MAKERRRAVLELLQRPGNARCADCGAPDPDWASYTLGVFICLSCSGIHRNIPQVSKVKSVRLDAWEEAQVEFMASHGNDAARARFESKVPSFYYRPTPSDCQLLREQWIRAKYERQEFIYPEKQEPYSAGYREGFLWKRGRDNGQFLSRKFVLTEREGALKYFNRNDAKEPKAVMKIEHLNATFQPAKIGHPHGLQVTYLKDNSTRNIFIYHEDGKEIVDWFNALRAARFHYLQVAFPGAGDADLVPKLSRNYLKEGYMEKTGPKQTEGFRKRWFTMDDRRLMYFKDPLDAFARGEVFIGSKESGYTVLHGFPPSTQGHHWPHGITIVTPDRKFLFACETESDQREWVAAFQKAVDRPMLPQEYAVEAHFKHKP

Legend:
Plk1 (p68Plk1) = Plk1 (p68Plk1) (UniProt P53350); test: co-IP; IP and IB of Plk1-NRDC in PANC-1 cells; which partner was precipitated is not told
[1] = molecular target: Flag-p72Plk3 (full-length human Polo-like kinase 3, 1-646 aa) (human) (UniProt Q9H4B4); test: co-IP; 1 mg protein extract of cells (PANC-1) transfected with the Flag-tagged Plk3 construct, anti-Flag (M2) magnetic beads, 4 °C overnight; partner detected by Western blot
[2] = molecular target: nardilysin (NRDC) (human (endogenous in PANC-1)) (UniProt O43847); test: co-IP; co-IP of NRDC from PANC-1 cells transfected with Flag-p72Plk3, treated with or without LY294002 (32 μM); immunoblot

binding (Plk1 (p68Plk1)) | binding [1] | binding [2] | Molecule
binds | binds | – | nardilysin (NRDC) (from UniProt O43847) (enzyme)
– | – | binds | Flag-p72Plk3 (full-length human Polo-like kinase 3, 1-646 aa) (from UniProt Q9H4B4 1-646) (enzyme)
– | – | binds | B1
